The results in this text go back to paper PMC6182170.

Protein sequences, listed by entry. Tags and fused reporters are not part of them.
UniProt Q22618: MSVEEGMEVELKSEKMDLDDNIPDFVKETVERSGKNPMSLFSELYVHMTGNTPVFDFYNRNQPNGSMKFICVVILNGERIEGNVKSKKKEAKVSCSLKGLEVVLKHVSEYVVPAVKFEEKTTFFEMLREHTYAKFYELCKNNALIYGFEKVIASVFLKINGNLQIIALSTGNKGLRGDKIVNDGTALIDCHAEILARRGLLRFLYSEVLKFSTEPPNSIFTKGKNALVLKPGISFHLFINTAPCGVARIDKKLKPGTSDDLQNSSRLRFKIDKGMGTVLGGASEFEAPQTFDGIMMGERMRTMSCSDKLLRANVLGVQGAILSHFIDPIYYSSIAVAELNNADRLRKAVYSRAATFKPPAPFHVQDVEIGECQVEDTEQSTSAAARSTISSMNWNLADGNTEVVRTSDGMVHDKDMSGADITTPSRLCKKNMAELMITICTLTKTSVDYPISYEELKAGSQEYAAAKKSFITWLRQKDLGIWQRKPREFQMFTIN

The target in the assay is Recombinant WT ADR-2 (C. elegans) (UniProt Q22618). Description: pull-down; in vitro pulldown: recombinant ADR-2 (5 nM) held on anti-rabbit IgG Dynabeads by ADR-2 antibody PA6496, 4°C, BSA block; ADR-1 proteins (3 nM) added in EMSA buffer (50 mM KCl, 10 mM Tris-HCl pH 8.0, 10% glycerol, 1 mM MgCl2) for 1 h, with or without 46 bp dsRNA (0-10 nM); also after micrococcal nuclease treatment of the WT proteins; immunoblot with ADR-1 and ADR-2 antibodies; both purified. A general note: In EMSA bound probe runs differently from free probe, usually more slowly.

Positions count from the first letter of the chain named. These are yes or no findings as the source states them, for the method shown. Some results given as binding are weak or reduced against the parent protein; the word gives no strength. Tags and fused reporters may be left off the sequences shown.

B1: Recombinant WT ADR-1 (His-ADR-1) (protein, UniProt Q9U3D6 1-964)
chain: MDQNPNYNFGYGQAYGSGTDHTSDSTNNYNWASQWSQPESAASLATHTFPQYVSQQQQQQQQQAQQQAQNTYAAMNPISTFMQQQQRAQTFPQKKYGQQGGAPKPSAIRNNNFGAFGGGHALSQEWVQPMSQNQMGGPQGNRFFNNQKGGPFNQNKPNWRQNKPKGPAAPKKFDSTGKSPAMLLHELFKDVSEEYTEVEGVPKKYCCTLKVNGRTFQMESVNKKAAKQKCSELVVRDLRPDVHVTPFEEGVAAKAAAPVKKEIDAASGNGQNNKRNLLQADAISNQPTPKKVSAVKKAKLQLTPVESALSLLDLMQKIIAESAEKYSPVFEASEVPKDPEIPEVEVKKEEVDTNGENVANEKKSGWRKNETMHNVTLKFVEQNKQYTKMGPSRGVLKDMVIREALRDLFNVSHADITTVARRHASNRLGHDTTILQCLNTICSILNCTLTIECEPAEDRPLGIGRAYFMAKCTIIDHNENDLKFEVKSSSLASKAMAKDWVAQETLKNYFAIDPSSCVKTDAVSSQGPCALLHAMLNKQTKQKCKIAYEFKDNVPPVAGQATTTFYCECVIDETDRYIGVGRSKKLAKSEAAMQALKKLFKIDYDPAGNYPLALTSRAMTESKVSPLCRHIAEFCKREYHQMTEYYQIPPSNLFAAFLLVNAQEEKRVLAMGSSIQYIVEPDTLSGANGTSLLHLDAIILARRAMLKAFIHELSTVDSECSIFEKKEEGKAALKPNLRLVLYSNYSPPCIHAVDDAATKKLSYVTPTNLTCVPDDVLTYEQIKETKSLRVHCTADKLFKWNTLGIQGALLSNVLHPIFIDNIFFGSEAPVSDESLSYALQGRLGPNENEREIIVESMPVQMRMHMGISHLWHRGVDSVETLDYNTGRTSKGSPSRVCKAEIFEAYRKLNGVDQAVVNYAKAKEMASEYQYEKKVFYEKLEAAGLGKWQTKPAELVDSFTLAAFD
Regarding B1, the binding entry is listed as “binds”.

B2: Recombinant ADR-1 dsRBD1 mutant (KKxxK into EAxxA in dsRBD1) (protein, UniProt Q9U3D6 1-964)
chain: B1 chain with K223E, K224A, K227A
Take B2: the binding entry is listed as “binds”.
